According to publication doi:10.1101/2022.03.17.484690:
No constants are given. Whether binding was seen depends on the method and setting. For part of these data: Binding seen in cells or lysates may run through a third protein. Some binding calls cover weakened binding; strength is not graded here. For part of these data: Sequences can lack the tags named with a protein.

Key:
[1] = biological target: T1, DUF581-9-myc (Arabidopsis thaliana) (UniProt O80506); assay: co-IP
T1 sequence: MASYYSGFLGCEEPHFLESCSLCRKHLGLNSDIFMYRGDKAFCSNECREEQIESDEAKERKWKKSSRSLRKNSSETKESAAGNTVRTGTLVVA

[2] = biological target: T2, GST-KIN10 (Arabidopsis thaliana) (UniProt Q38997); assay: pull-down
T2 sequence: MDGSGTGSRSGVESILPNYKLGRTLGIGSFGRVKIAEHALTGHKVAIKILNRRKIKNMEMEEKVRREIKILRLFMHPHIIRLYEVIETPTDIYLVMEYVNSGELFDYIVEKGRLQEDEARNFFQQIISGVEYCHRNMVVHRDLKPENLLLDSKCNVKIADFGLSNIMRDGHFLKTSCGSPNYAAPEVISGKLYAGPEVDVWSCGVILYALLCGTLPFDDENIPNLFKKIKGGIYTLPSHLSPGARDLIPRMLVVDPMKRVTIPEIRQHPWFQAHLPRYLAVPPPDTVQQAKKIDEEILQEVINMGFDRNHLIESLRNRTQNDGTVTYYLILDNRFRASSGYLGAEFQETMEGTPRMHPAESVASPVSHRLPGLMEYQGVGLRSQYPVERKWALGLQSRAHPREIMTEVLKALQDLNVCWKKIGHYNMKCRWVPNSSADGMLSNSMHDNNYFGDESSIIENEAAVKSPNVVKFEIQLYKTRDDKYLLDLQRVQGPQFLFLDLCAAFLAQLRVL

[3] = biological target: T3, GST-KIN10 (Arabidopsis thaliana), Q38997; assay: pull-down; conditions: remark: other sources report otherwise
T3 chain: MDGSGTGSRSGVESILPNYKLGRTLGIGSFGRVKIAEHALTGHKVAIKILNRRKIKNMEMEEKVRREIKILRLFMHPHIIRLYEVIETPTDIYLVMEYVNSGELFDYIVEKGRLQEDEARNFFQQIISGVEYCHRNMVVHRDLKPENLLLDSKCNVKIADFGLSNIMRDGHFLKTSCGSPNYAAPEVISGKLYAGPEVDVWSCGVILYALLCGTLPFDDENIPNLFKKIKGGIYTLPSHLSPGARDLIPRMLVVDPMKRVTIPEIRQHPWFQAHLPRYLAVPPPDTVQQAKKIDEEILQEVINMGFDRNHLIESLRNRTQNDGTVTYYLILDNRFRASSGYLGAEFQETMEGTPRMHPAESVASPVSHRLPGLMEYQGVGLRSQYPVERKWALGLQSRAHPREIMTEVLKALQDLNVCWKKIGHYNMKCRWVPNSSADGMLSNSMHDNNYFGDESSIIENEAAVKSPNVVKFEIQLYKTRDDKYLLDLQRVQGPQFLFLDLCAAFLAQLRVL

[4] = biological target: T4, DUF581-9 fused to the GAL4 DNA binding domain (BD) (Arabidopsis thaliana) (UniProt O80506); assay: two-hybrid
T4 sequence: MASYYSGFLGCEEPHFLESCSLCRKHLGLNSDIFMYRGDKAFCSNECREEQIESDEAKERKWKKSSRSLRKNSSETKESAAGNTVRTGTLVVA

[5] = biological target: T5, KIN10-Venus^N173 (Arabidopsis thaliana) (UniProt Q38997); assay: split reporter
T5 sequence: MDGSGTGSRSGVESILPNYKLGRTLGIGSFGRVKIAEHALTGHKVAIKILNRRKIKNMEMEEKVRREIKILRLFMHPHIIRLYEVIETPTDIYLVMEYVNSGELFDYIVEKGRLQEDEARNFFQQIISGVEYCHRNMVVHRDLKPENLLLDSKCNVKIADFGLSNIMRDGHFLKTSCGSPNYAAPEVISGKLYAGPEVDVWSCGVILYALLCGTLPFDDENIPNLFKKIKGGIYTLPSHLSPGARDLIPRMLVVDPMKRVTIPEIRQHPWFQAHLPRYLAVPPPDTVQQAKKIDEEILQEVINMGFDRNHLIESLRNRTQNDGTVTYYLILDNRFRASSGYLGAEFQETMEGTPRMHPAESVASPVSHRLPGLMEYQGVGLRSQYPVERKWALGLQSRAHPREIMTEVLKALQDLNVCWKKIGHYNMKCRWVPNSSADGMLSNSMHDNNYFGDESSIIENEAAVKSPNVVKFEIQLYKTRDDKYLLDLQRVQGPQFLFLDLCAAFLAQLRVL

[6] = biological target: Cytosolic FBPase (FBPase-Venus^N173 and FBPase-Venus^C155) (Arabidopsis thaliana) (UniProt Q9MA79); assay: split reporter
[7] = biological target: T6, GRIK2 (yeast two-hybrid fusion) (Arabidopsis thaliana) (UniProt Q5HZ38); assay: two-hybrid
T6 sequence: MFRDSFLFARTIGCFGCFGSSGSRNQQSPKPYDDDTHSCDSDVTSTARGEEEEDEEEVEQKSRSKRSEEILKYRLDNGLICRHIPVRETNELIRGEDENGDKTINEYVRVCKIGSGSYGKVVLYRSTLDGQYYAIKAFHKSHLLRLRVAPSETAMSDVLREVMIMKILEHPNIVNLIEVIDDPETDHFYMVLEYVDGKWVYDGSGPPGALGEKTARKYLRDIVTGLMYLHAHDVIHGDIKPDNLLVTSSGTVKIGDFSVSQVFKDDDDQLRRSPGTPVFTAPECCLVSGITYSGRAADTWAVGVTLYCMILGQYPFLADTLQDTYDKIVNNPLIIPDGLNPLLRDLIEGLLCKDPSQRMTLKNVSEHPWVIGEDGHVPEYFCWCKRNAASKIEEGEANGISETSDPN

B1: KIN10 (protein, UniProt Q38997 1-512)
chain: MDGSGTGSRSGVESILPNYKLGRTLGIGSFGRVKIAEHALTGHKVAIKILNRRKIKNMEMEEKVRREIKILRLFMHPHIIRLYEVIETPTDIYLVMEYVNSGELFDYIVEKGRLQEDEARNFFQQIISGVEYCHRNMVVHRDLKPENLLLDSKCNVKIADFGLSNIMRDGHFLKTSCGSPNYAAPEVISGKLYAGPEVDVWSCGVILYALLCGTLPFDDENIPNLFKKIKGGIYTLPSHLSPGARDLIPRMLVVDPMKRVTIPEIRQHPWFQAHLPRYLAVPPPDTVQQAKKIDEEILQEVINMGFDRNHLIESLRNRTQNDGTVTYYLILDNRFRASSGYLGAEFQETMEGTPRMHPAESVASPVSHRLPGLMEYQGVGLRSQYPVERKWALGLQSRAHPREIMTEVLKALQDLNVCWKKIGHYNMKCRWVPNSSADGMLSNSMHDNNYFGDESSIIENEAAVKSPNVVKFEIQLYKTRDDKYLLDLQRVQGPQFLFLDLCAAFLAQLRVL
Q: Which binding [1] does the source give for B1 here?
A: binds

B2: MBP-GRIK2 (protein, UniProt Q5HZ38 1-407)
chain: MFRDSFLFARTIGCFGCFGSSGSRNQQSPKPYDDDTHSCDSDVTSTARGEEEEDEEEVEQKSRSKRSEEILKYRLDNGLICRHIPVRETNELIRGEDENGDKTINEYVRVCKIGSGSYGKVVLYRSTLDGQYYAIKAFHKSHLLRLRVAPSETAMSDVLREVMIMKILEHPNIVNLIEVIDDPETDHFYMVLEYVDGKWVYDGSGPPGALGEKTARKYLRDIVTGLMYLHAHDVIHGDIKPDNLLVTSSGTVKIGDFSVSQVFKDDDDQLRRSPGTPVFTAPECCLVSGITYSGRAADTWAVGVTLYCMILGQYPFLADTLQDTYDKIVNNPLIIPDGLNPLLRDLIEGLLCKDPSQRMTLKNVSEHPWVIGEDGHVPEYFCWCKRNAASKIEEGEANGISETSDPN
Q: B2 was tested. Which binding [2] did it give?
A: binds

B3: MBP-DUF581-9 (protein, UniProt O80506 1-93)
chain: MASYYSGFLGCEEPHFLESCSLCRKHLGLNSDIFMYRGDKAFCSNECREEQIESDEAKERKWKKSSRSLRKNSSETKESAAGNTVRTGTLVVA
Q: How did the binding [2] turn out when B3 was run?
A: binds

B4: MBP-DUF581-9_(C47S), O80506 1-93 (protein)
chain: MASYYSGFLGCEEPHFLESCSLCRKHLGLNSDIFMYRGDKAFCSNESREEQIESDEAKERKWKKSSRSLRKNSSETKESAAGNTVRTGTLVVA
Q: With B4 as the binder, how does the binding [3] read?
A: binds

B5: KIN10 fused to the GAL4 activation domain (AD) (protein, UniProt Q38997 1-512)
chain: MDGSGTGSRSGVESILPNYKLGRTLGIGSFGRVKIAEHALTGHKVAIKILNRRKIKNMEMEEKVRREIKILRLFMHPHIIRLYEVIETPTDIYLVMEYVNSGELFDYIVEKGRLQEDEARNFFQQIISGVEYCHRNMVVHRDLKPENLLLDSKCNVKIADFGLSNIMRDGHFLKTSCGSPNYAAPEVISGKLYAGPEVDVWSCGVILYALLCGTLPFDDENIPNLFKKIKGGIYTLPSHLSPGARDLIPRMLVVDPMKRVTIPEIRQHPWFQAHLPRYLAVPPPDTVQQAKKIDEEILQEVINMGFDRNHLIESLRNRTQNDGTVTYYLILDNRFRASSGYLGAEFQETMEGTPRMHPAESVASPVSHRLPGLMEYQGVGLRSQYPVERKWALGLQSRAHPREIMTEVLKALQDLNVCWKKIGHYNMKCRWVPNSSADGMLSNSMHDNNYFGDESSIIENEAAVKSPNVVKFEIQLYKTRDDKYLLDLQRVQGPQFLFLDLCAAFLAQLRVL
Q: With B5 as the binder, how does the binding [4] read?
A: binds

B6: GRIK2-Venus^C155 (protein, UniProt Q5HZ38 1-407)
chain: MFRDSFLFARTIGCFGCFGSSGSRNQQSPKPYDDDTHSCDSDVTSTARGEEEEDEEEVEQKSRSKRSEEILKYRLDNGLICRHIPVRETNELIRGEDENGDKTINEYVRVCKIGSGSYGKVVLYRSTLDGQYYAIKAFHKSHLLRLRVAPSETAMSDVLREVMIMKILEHPNIVNLIEVIDDPETDHFYMVLEYVDGKWVYDGSGPPGALGEKTARKYLRDIVTGLMYLHAHDVIHGDIKPDNLLVTSSGTVKIGDFSVSQVFKDDDDQLRRSPGTPVFTAPECCLVSGITYSGRAADTWAVGVTLYCMILGQYPFLADTLQDTYDKIVNNPLIIPDGLNPLLRDLIEGLLCKDPSQRMTLKNVSEHPWVIGEDGHVPEYFCWCKRNAASKIEEGEANGISETSDPN
Q: B6 was tested. Which binding [5] did it give?
A: binds

B7: DUF581-9-mCherry (protein, UniProt O80506 1-93)
chain: MASYYSGFLGCEEPHFLESCSLCRKHLGLNSDIFMYRGDKAFCSNECREEQIESDEAKERKWKKSSRSLRKNSSETKESAAGNTVRTGTLVVA
Q: For B7, which binding [5] is on record?
A: binds

B8: Cytosolic FBPase (FBPase-Venus^N173 and FBPase-Venus^C155) (enzyme, UniProt Q9MA79 1-341)
chain: MDHAADAHRTDLMTITRFVLNEQSKYPESRGDFTILLSHIVLGCKFVCSAVNKAGLAKLIGLAGETNIQGEEQKKLDVLSNDVFVNALVSSGRTSVLVSEEDEEATFVEPSKRGKYCVVFDPLDGSSNIDCGVSIGTIFGIYTLDHTDEPTTADVLKPGNEMVAAGYCMYGSSCMLVLSTGTGVHGFTLDPSLGEFILTHPDIKIPNKGNIYSVNEGNAQNWDGPTTKYVEKCKFPKDGSPAKSLRYVGSMVADVHRTLLYGGIFLYPADKKSPNGKLRVLYEVFPMSFLMEQAGGQAFTGKKRALDLVPEKIHERSPIFLGSYDDVEEIKALYAEEEKKN
Q: How did the binding [6] turn out when B8 was run?
A: binds

B9: DUF581-9 fused to the GAL4 activation domain (AD) (protein, UniProt O80506 1-93)
chain: MASYYSGFLGCEEPHFLESCSLCRKHLGLNSDIFMYRGDKAFCSNECREEQIESDEAKERKWKKSSRSLRKNSSETKESAAGNTVRTGTLVVA
Q: Which binding [7] does the source give for B9 here?
A: no binding
